# The list shows a part of the results.
# Compound: CC1Cc2ccccc2N1C(=O)C1CCCN(C1)C(=O)CCl (mixture of isomers) [TRIM25 ligand 11 (diastereomer mixture)]
# Assay: probe-labelled cysteine peptide fold change vs DMSO (competition) (log2 fold change); higher = less target engagement (more negative = stronger competition)
# Settings: 50 µM; THP-1; incubation time: 4 h
# 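Note: competitive chemoproteomic profiling in live THP-1 cells with an iodoacetamide desthiobiotin (IA-DTB) probe, comparing probe-labelled peptide intensities in compound-treated cells against DMSO-treated controls.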
row,Target,probe-labelled cysteine peptide fold change
1,COPA_P53621_655_FSLALECGNIEIALEAAK (UniProt P53621),0.00176
2,COPS7B_Q9H9Q2_181_TLHEWCDGCEAVLLGIEQQVLR (UniProt Q9H9Q2),0.0351
3,COPG2_Q9UBF2_446_EAGLAHLCEFIEDCEHTVLATK (UniProt Q9UBF2),0.000499
4,CNPY3_Q9BT09_194_NHQEEDLTEFLCANHVLK (UniProt Q9BT09),-0.00404
5,COQ5_Q5HYK3_170_VVVCDINK (UniProt Q5HYK3),0.0689
6,COA7_Q96BR5_187_ACDLGHIWACANASR (UniProt Q96BR5),-0.168
7,COMMD3_Q9UBI1_90_STLSTYLEDCK (UniProt Q9UBI1),0.0602
8,COG5_Q9UP83_716_LAADFAQMELAVGPFCR (UniProt Q9UP83),0.278
9,COPG2_Q9UBF2_88_MCYLTIK (UniProt Q9UBF2),-0.0267
10,COPS3_Q9UNS2_25_QLSAQGQMTQLCELINK (UniProt Q9UNS2),-0.175
11,COPA_P53621_453_VQVPNCDEIFYAGTGNLLLR (UniProt P53621),-0.164
12,COPA_P53621_1148_KILSACEK (UniProt P53621),-0.459
13,COA7_Q96BR5_111_SIAACHNVGLLAHDGQVNEDGQPDLGK (UniProt Q96BR5),-0.242
14,CLUH_O75153_88_TCFSLHLDGNVLDHFSELR (UniProt O75153),-0.118
15,COPG1_Q9Y678_706_SLPYNQPGTCYTLVALPK (UniProt Q9Y678),-0.0255
16,CNOT1_A5YKK6_2359_LFQSVAQCCMGQK (UniProt A5YKK6),0.285
17,COPG1_Q9Y678_230_SPFAYCMMIR (UniProt Q9Y678),-0.0231
18,CNOT4_O95628_56_IRTDENGLCPACR (UniProt O95628),-0.114

# For convenience, some entries already given.
row,Target,probe-labelled cysteine peptide fold change
5,COQ5_Q5HYK3_170_VVVCDINK (UniProt Q5HYK3),0.0689
6,COA7_Q96BR5_187_ACDLGHIWACANASR (UniProt Q96BR5),-0.168
7,COMMD3_Q9UBI1_90_STLSTYLEDCK (UniProt Q9UBI1),0.0602
8,COG5_Q9UP83_716_LAADFAQMELAVGPFCR (UniProt Q9UP83),0.278
9,COPG2_Q9UBF2_88_MCYLTIK (UniProt Q9UBF2),-0.0267
10,COPS3_Q9UNS2_25_QLSAQGQMTQLCELINK (UniProt Q9UNS2),-0.175
11,COPA_P53621_453_VQVPNCDEIFYAGTGNLLLR (UniProt P53621),-0.164
12,COPA_P53621_1148_KILSACEK (UniProt P53621),-0.459
13,COA7_Q96BR5_111_SIAACHNVGLLAHDGQVNEDGQPDLGK (UniProt Q96BR5),-0.242

# The list goes on.

row,Target,probe-labelled cysteine peptide fold change
1,COPA_P53621_1169_NPTDAYQLNYDMHNPFDICAASYRPIYR (UniProt P53621),-0.0242
2,CNPY2_Q9Y2B0_86_SEAHLTELLEEICDR (UniProt Q9Y2B0),0.0886
3,CNN2_Q99439_164_AGQCVIGLQMGTNK (UniProt Q99439),-0.0857
4,COPB2_P35606_689_CQFGLAQECLHHAQDYGGLLLLATASGNANMVNK (UniProt P35606),0.143
5,CMIP_Q8IY22_363_NGCQQPCDR (UniProt Q8IY22),-0.195
6,COMMD4_Q9H0A8_107_EHAASLCR (UniProt Q9H0A8),0.0371
7,CMIP_Q8IY22_455_TLGCYVEILK (UniProt Q8IY22),0.0363
8,COMT_P21964_207_YLPDTLLLEECGLLRK (UniProt P21964),0.00395
9,COPS3_Q9UNS2_149_MQMNTNQLTSIHADLCQLCLLAK (UniProt Q9UNS2),0.0269
10,COPS6_Q7L5N1_264_EAYALCHCLPVLSTDK (UniProt Q7L5N1),0.164
11,CNPY2_Q9Y2B0_28+31_SQDLHCGACR (UniProt Q9Y2B0),-0.0399
12,CMC2_Q9NRP2_14_MHPDLSPHLHTEECNVLINLLK (UniProt Q9NRP2),0.0806
13,CNP_P09543_252_RPPGVLHCTTK (UniProt P09543),-0.201
14,COLGALT1_Q8NBJ5_283_QAEVQMYVCNKEEYGFLPVPLR (UniProt Q8NBJ5),-0.0703
15,CNOT7_Q9UIV1_13_ICEVWACNLDEEMKK (UniProt Q9UIV1),0.111
16,COA7_Q96BR5_37_DPDGCYR (UniProt Q96BR5),0.0471
17,COMMD9_Q9P000_47_KLLDVTCSSLSVTQEEAEELLQALHR (UniProt Q9P000),0.271
18,CNPY3_Q9BT09_206_DTSCLAEQWSGK (UniProt Q9BT09),0.0385

# Source: the supplement of paper PMC12067093, “Discovery and optimisation of a covalent ligand for TRIM25 and its application to targeted protein ubiquitination” (Chemical Science, 2025)
